Reference: PubChem BioAssay AID493014 (National Center for Advancing Translational Sciences (NCATS), 2011)
This is one part of the list. These are further read-outs of the screen, such as a control signal, another cell line or another target. No call is given for them. Compounds called inactive in the main read-out are mostly missing here. Words in brackets tell the shape of the fitted curve; partial curves, single points and poor fits give uncertain potencies.

Experiment: qHTS Assay to Find Inhibitors of Chronic Active B-Cell Receptor Signaling
Details: ABC-DLBCL IkBa-CBG/CBR reporter, luminescence ratio (green luciferase fused to IkBa over red control in TMD8 lymphoma cells), 4 h
Procedure, shortened: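 Doxycycline induced both beetle luciferases in TMD8 lymphoma cells; IKK-driven degradation limits the IkappaBalpha-fused green signal, while red luminescence normalises for cell number and nonspecific effects. Compounds tested up to 46 uM, 4 hrs.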

[1] = measured here: CBR red luminescence, cell number
[2] = measured here: IkBa-CBG green luminescence

| Compound | AC50 [1] | AC50 [2] |
| --- | --- | --- |
| Cc1cc(/C=N/NC(=O)c2ccccc2F)c(C)n1-c1ccccc1 | 12.6 µM [falling, partial curve] |  |
| CC(C)CNC(=S)NC1CCCC1 | 2.59 µM [rising, partial curve] |  |
| CC1Cc2ccccc2N1C(=S)NC(=O)c1ccc(Cl)cc1Cl (stereo not given) | 29.1 µM [rising, single point] |  |
| COC(=O)c1ccccc1NC(=O)C12CCC(C)(C(=O)O1)C2(C)C (stereo not given) | 4.11 µM [rising, partial curve, poor fit] |  |
| O=C(Nc1cccnc1)Nc1ccc2c(c1)OCO2 | 29.1 µM [falling, single point] |  |
| COc1ccccc1CNC(=O)CSc1ccc(-c2cccc([N+](=O)[O-])c2)nn1 | 0.562 µM [rising, full curve, poor fit] |  |
| Cc1ccc(S(=O)(=O)N2CCCCC2)cc1NC(=O)c1ccccc1Cl | 14.6 µM [rising, partial curve, poor fit] |  |
| C=CCOc1ccc(CNC(C)(C)C)cc1OC | 6.31 µM [rising, single point] |  |
| Cc1ccc(N2C(=O)[C@@H]3[C@H](C2=O)C2CCCN2[C@@H]3C(=O)c2ccccc2)cc1 (stereo not given in full) | 11.2 µM [falling, partial curve, poor fit] |  |
| Cc1ccc(Nc2ncccc2C(N)=O)cc1 | 16.4 µM [rising, single point] |  |
| CCOc1ccccc1Nc1cc(C)nc2nnnn12 | 2.82 µM [falling, full curve] |  |
| COc1ccccc1OCC(=O)Nc1ccc(O)cc1C(=O)O | 2.59 µM [falling, partial curve] |  |
| C=CCNC(=O)/C(C#N)=C/c1c(C)nn(-c2ccccc2)c1Cl | 8.2 µM [falling, partial curve, poor fit] |  |
| Cc1cc(C(=O)CSc2nnnn2-c2ccc(Cl)cc2)c(C)n1CC1CCCO1 (stereo not given) | 0.731 µM [rising, full curve, poor fit] |  |
| Cc1cccc(C(=O)Nc2nnc(-c3cccnc3)o2)c1 | 25.1 µM [falling, single point] |  |
| N/C(=N\OC(=O)/C=C/c1ccccc1)c1ccncc1 | 7.08 µM [falling, partial curve] |  |
| Cc1ccc(-c2nnc(Nc3ccc(C(N)=O)cc3)c3ccccc23)cc1S(=O)(=O)NCC1CCCO1 (stereo not given) | 10.3 µM [falling, partial curve, poor fit] |  |
| CC1CCc2nc(NC(=O)Nc3ccc4c(c3)OCO4)sc2C1 (stereo not given) | 0.13 µM [falling, full curve, poor fit] |  |
| COc1ccc(N2CCN(C(=O)COC(=O)c3cnccn3)CC2)cc1 | 0.461 µM [rising, full curve, poor fit] |  |
| Cc1nnc(SCC(=O)Nc2ccccc2N2CCOCC2)s1 | 4.11 µM [rising, single point] |  |
| CC(C)(C)C(=O)Oc1cccc(Nc2ncnc3ccccc23)c1 | 12.6 µM [falling, partial curve, poor fit] |  |

Look-ups from above:
In AC50 [1], `CC(C)CNC(=S)NC1CCCC1` has the entry 2.59 µM [rising, partial curve]
In AC50 [1], `CC(C)(C)C(=O)Oc1cccc(Nc2ncnc3ccccc23)c1` has the entry 12.6 µM [falling, partial curve, poor fit]

More compounds

| Compound | AC50 [1] | AC50 [2] |
| --- | --- | --- |
| COc1cc(C(CC(=O)Nc2ccc(C)cn2)N2Cc3ccccc3C2=O)cc(OC)c1OC (stereo not given) | 0.355 µM [rising, full curve, poor fit] |  |
| CCOc1ccc2nc(COC(=O)c3ccncc3)c(C(=O)c3ccccc3)[n+]([O-])c2c1 | 15.8 µM [rising, partial curve, poor fit] |  |
| COc1cccc(-n2nc(-c3ccnn3-c3ccc(C)cc3)c(=O)n(C)c2=O)c1 | 1.46 µM [falling, full curve, poor fit] |  |
| O=C(NCc1ccccc1)c1cccnc1Sc1ccccc1 | 6.31 µM [falling, single point] |  |
| CC(=O)Nc1cc2nc(C)n(Cc3ccccc3[N+](=O)[O-])c2nc1C | 6.31 µM [rising, single point] |  |
| Cn1c(=O)c2c(ncn2CC(=O)N/N=C/C=C/c2ccccc2[N+](=O)[O-])n(C)c1=O | 5.62 µM [rising, single point] |  |
| N#C/C(=C(/O)c1ccc([N+](=O)[O-])s1)c1nc2ccccc2[nH]1 | 1.26 µM [falling, full curve] |  |
| NC(=O)c1ccc(Cn2c(C(=O)c3cc(Cl)c(N)c(Cl)c3)c3ccccc3[n+]2[O-])cc1 | 29.1 µM [falling, single point] | 18.4 µM [falling, single point] |
| COC(=O)c1c(NC(=O)COC(=O)[C@@H](NS(=O)(=O)c2ccccc2)C(C)C)sc2c1CCC2 | 20.6 µM [falling, partial curve, poor fit] |  |
| O=C(COC(=O)c1ccc(NS(=O)(=O)c2cccs2)cc1)Nc1nc2c(F)c(F)c(F)cc2s1 | 5.01 µM [falling, partial curve] |  |
| Cc1cc(C)cc(C(=O)N2CCN(c3ccccn3)CC2)c1 | 0.447 µM [rising, full curve, poor fit] |  |
| c1ccc2sc(Sc3ncnc4sccc34)nc2c1 | 6.51 µM [falling, partial curve] |  |
| Cc1cccc(OCC2=N/C(=C\N(C)C)C(=O)O2)c1 | 15.8 µM [rising, partial curve] |  |
| Cc1c(NC(=O)c2cnn3c(C(F)(F)F)cc(-c4ccco4)nc23)c(=O)n(-c2ccccc2)n1C | 20 µM [rising, partial curve, poor fit] |  |
| O=C(Nc1cccc(S(=O)(=O)N2CCCCC2)c1)c1cc(=O)[nH]c2ccccc12 | 0.103 µM [rising, full curve, poor fit] |  |
| Cc1cc2ccc(C)c(C)c2nc1SCC#N | 35.5 µM [rising, single point] |  |
| CCOC(=O)c1nnc(-c2ccc(C)cc2)nc1Sc1ccc(Cl)cc1 | 13 µM [falling, single point] |  |
| O=C(NC1CCCCC1)C(c1ccc(Cl)cc1)N(C(=O)c1cnccn1)c1ccc2c(c1)OCO2 (stereo not given) | 32.6 µM [falling, single point] |  |
| COc1ccc(NC(=O)/C(C#N)=C\c2ccc(-c3cccc(C(=O)O)c3C)o2)cc1 | 15.8 µM [falling, single point] |  |
| O=[N+]([O-])c1cccc(-c2noc(-c3ccco3)n2)c1 | 3.98 µM [rising, partial curve, poor fit] |  |
| O=C(O)C(c1ccccc1)N1C(=O)/C(=C\c2ccc(-c3ccccc3Cl)o2)SC1=S (stereo not given) | 20 µM [falling, single point] |  |

Complete entries as entered above.
O=C(NC1CCCCC1)C(c1ccc(Cl)cc1)N(C(=O)c1cnccn1)c1ccc2c(c1)OCO2 (stereo not given) is listed as AC50 [1]: 32.6 µM [falling, single point]
Cn1c(=O)c2c(ncn2CC(=O)N/N=C/C=C/c2ccccc2[N+](=O)[O-])n(C)c1=O is listed as AC50 [1]: 5.62 µM [rising, single point]

(continued)

| Compound | AC50 [1] | AC50 [2] |
| --- | --- | --- |
| COc1ccc(Nc2nc(-c3cccnc3)cs2)c(OC)c1 | 0.631 µM [rising, full curve] |  |
| Cc1ccc(OCCn2c(C)c(/C=N/n3cnnc3)c3ccccc32)cc1 | 12.6 µM [rising, partial curve, poor fit] | 14.1 µM [falling, partial curve, poor fit] |
| COc1ccc(OCC(=O)c2c(O)c3ccccc3oc2=O)cc1 | 5.8 µM [falling, partial curve, poor fit] |  |
| COc1ccc(NC(=O)C2CCCN(S(C)(=O)=O)C2)cc1Cl (stereo not given) | 0.0891 µM [rising, full curve, poor fit] |  |
| COC/C=C/C1=CC2=CC(=O)C(C)(OC(=O)c3cnc4ccccc4n3)C(=O)C2=CN1CCCCO (stereo not given) | 3.98 µM [rising, full curve, poor fit] |  |
| OCC(O)CNC(=S)NC1CCCCC1 (stereo not given) | 31.6 µM [rising, single point] |  |
| COC(=O)C1=C(C)N=C2SC(C)C(=O)N2C1c1cccc(F)c1 (stereo not given) | 35.5 µM [falling, single point] |  |
| CCN(CC)S(=O)(=O)c1ccc(C)c(NC(=O)COC(=O)CNC(=O)c2ccc(C(C)(C)C)cc2)c1 | 25.9 µM [falling, single point] |  |
| Cc1ccccc1Cn1cc(S(=O)(=O)CC(=O)Nc2nccs2)c2ccccc21 | 16.4 µM [falling, single point] |  |
| Cc1cc(SCc2ccc([N+](=O)[O-])cc2)nc(=O)[nH]1 | 20 µM [rising, single point] |  |
| COc1ccc2oc(=O)c(/C(C)=N/NC(=O)c3ccncc3)cc2c1 | 20.6 µM [falling, partial curve, poor fit] |  |
| Cc1cccc(N2C(=O)CC(N(O)c3ccccc3)C2=O)c1 (stereo not given) | 15.8 µM [falling, partial curve, poor fit] |  |
| COc1ccc(S(=O)(=O)N2CCC(C(=O)NCc3ccccn3)CC2)cc1Cl | 2.91 µM [falling, full curve, poor fit] |  |
| CCCCN1C(=O)/C(=C/C=C2\SCCN2C)SC1=S | 10 µM [rising, partial curve, poor fit] |  |
| Cc1ccc(S(=O)(=O)N(Cc2ccccc2)c2ccccc2C(=O)NCc2ccco2)cc1 | 12.6 µM [falling, partial curve, poor fit] |  |
| CCCCCCCC(=O)NN=C1CCN(Cc2ccccc2)CC1 | 4.11 µM [falling, single point] |  |
| CN(Cc1ccccc1)C(=O)COC(=O)c1cc([N+](=O)[O-])ccc1N1CCOCC1 | 20.6 µM [rising, partial curve] |  |
| CCN1CCN(C(=O)c2cc(-c3ccc(Cl)s3)nc3ccccc23)CC1 | 22.4 µM [falling, partial curve, poor fit] |  |
| CCC(CC)c1nnc(NC(=O)c2ccc3ccccc3n2)s1 | 1.26 µM [rising, full curve, poor fit] |  |
| O=C(Nc1ccc2ccccc2n1)Nc1cccs1 | 0.562 µM [rising, full curve] |  |
| COc1cccc(-n2nnnc2SCC(=O)Nc2ccccc2OC)c1 | 7.08 µM [falling, partial curve] |  |
